{"source": "PubChem BioAssay AID540276", "about": "(National Center for Advancing Translational Sciences (NCATS), 2011)", "note": "Screen size: about 300,000 compounds; about 5,400 (1.8%) were called active. Inconclusive means that the source gave no clear call. Such entries were picked first, then a sample of the others. Calls come from the whole dose curve; tested in HEK293 cells. A potency beside an inconclusive call is a rough fit, not a confirmed value. Potency is the fitted concentration of half-maximal effect."}
{"assay": "qHTS for inhibitors of binding or entry into cells for Marburg Virus", "conditions": "Marburg virus pseudotyped entry inhibition, cell reporter; series mostly up to 37.8 µM"}
{"smiles": "CCNC(=O)COC(=O)CNC(=O)c1cc(Cl)cc([N+](=O)[O-])c1", "Potency": "inconclusive: 6.51 µM [inhibitor, single point]"}
{"smiles": "Cn1c(=O)c2c([nH]c(=S)n2CCCc2ccccc2)n(C)c1=O", "Potency": "inconclusive: 20 µM [activator, partial curve, poor fit]"}
{"smiles": "O=C(NCc1ccco1)C1CC(c2ccccc2O)=NO1", "note": "(stereo not given)", "Potency": "inconclusive: 5.01 µM [inhibitor, full curve, poor fit]"}
{"smiles": "O=C(c1ccc(F)cc1)n1ccc(-c2cnc(-c3ccccc3)s2)n1", "Potency": "inactive"}
{"smiles": "COC(=O)c1ccc(N2CCN(S(=O)(=O)c3ccc(Br)cc3)CC2)c([N+](=O)[O-])c1", "Potency": "inconclusive: 25.9 µM [inhibitor, single point]"}
{"smiles": "Cc1ccc(C)c(Cn2nnc3c(=O)[nH]c(C4CCCN(C(=O)c5cccs5)C4)nc32)c1", "note": "(stereo not given)", "Potency": "inconclusive: 15.8 µM [inhibitor, single point]"}
{"smiles": "COc1cc(NC(=O)C2CCN(S(=O)(=O)c3cccnc3)CC2)cc(OC)c1OC", "Potency": "inconclusive: 35.5 µM [inhibitor, single point]"}
{"smiles": "CCCCCCN(C(=O)CCCCCN1C(=O)NC(c2ccc(-c3ccccc3)cc2)C(C(=O)OCc2ccccc2)=C1C)C(C(=O)NCCCC)c1ccc(O)cc1", "note": "(stereo not given)", "Potency": "inconclusive: 4.11 µM [inhibitor, full curve, poor fit]"}
{"smiles": "O=C(CCOc1ccccc1)Nc1ccc(Cl)c(S(=O)(=O)N2CCOCC2)c1", "Potency": "inconclusive: 7.94 µM [inhibitor, partial curve]"}
{"smiles": "CCOC(=O)c1ccc(NC(=O)CCOc2ccccc2)cc1", "Potency": "inconclusive: 0.1 µM [activator, full curve, poor fit]"}
{"smiles": "C/C(=N\\NC(=S)NCCc1ccccc1)c1ccc(C#N)cc1", "Potency": "inconclusive: 4.61 µM [inhibitor, single point]"}
{"smiles": "Cc1cc(C(C)(C)C)oc1C(=O)N(CC(=O)NC1CCCC1)c1c(C)cccc1C", "Potency": "active: 10.3 µM"}
{"smiles": "Cn1c(=O)c(C(=O)Nc2ccccn2)c(O)c2ccccc21", "Potency": "inconclusive: 16.4 µM [inhibitor, single point]"}
{"smiles": "COc1cc2[nH]c(=O)n(CCCC(=O)N3CC=C(c4ccccc4)CC3)c(=O)c2cc1OC", "Potency": "inconclusive: 0.1 µM [activator, full curve, poor fit]"}
{"smiles": "CC(C)OCCCNc1ncnc2sc3c(c12)CCCC3", "Potency": "inconclusive: 3.16 µM [activator, single point]"}
{"smiles": "Cc1nc2c(Br)cc(Br)cc2c(=O)n1-c1ccccc1NC1OCC(O)C(O)C1O", "note": "(stereo not given)", "Potency": "inconclusive: 6.31 µM [activator, partial curve, poor fit]"}
{"smiles": "Cc1ccc(C)c(Cn2c(=O)n(CCCCC(=O)NCc3ccc4c(c3)OCO4)c(=O)c3ccccc32)c1", "Potency": "inconclusive: 6.31 µM [activator, single point]"}
{"smiles": "COC(=O)C1C(C(=O)OC)C1(c1ccccc1)c1ccccc1", "note": "(stereo not given)", "Potency": "inactive"}
{"smiles": "c1ccc(C(c2ccccc2)N2CCN(Cc3nnnn3C3CCCC3)CC2)cc1", "Potency": "inconclusive: 14.1 µM [inhibitor, single point]"}
{"smiles": "COc1ccc(NC(=O)Cn2c(=O)n(Cc3ccccc3OC)c(=O)c3cccnc32)cc1Cl", "Potency": "inconclusive: 1.12 µM [inhibitor, partial curve, poor fit]"}
{"smiles": "CCOC(=O)C1CCCN(C(=O)c2cc(-c3ccc(F)cc3)nc3ccccc23)C1", "note": "(stereo not given)", "Potency": "inconclusive: 0.058 µM [inhibitor, full curve, poor fit]"}
{"smiles": "CC(C)(C)n1nnnc1C(c1cccs1)N1CCN(Cc2ccccc2)CC1", "note": "(stereo not given)", "Potency": "inconclusive: 29.1 µM [inhibitor, single point]"}
{"smiles": "COc1cc(/C=N/NC(=O)c2cccs2)ccc1OCc1ccccc1", "Potency": "inactive"}
{"smiles": "COc1ccc(N2CCN(C(=O)C3CCCN(S(=O)(=O)c4ccc(C)cc4)C3)CC2)cc1", "note": "(stereo not given)", "Potency": "inactive"}
{"smiles": "CC(C)C(C)(C#N)NC(=O)CSc1nnc(-c2ccncc2)n1Cc1ccccc1", "note": "(stereo not given)", "Potency": "inconclusive: 7.3 µM [inhibitor, partial curve, poor fit]"}
{"smiles": "Cc1ccc(N2CCN(C(=O)CN3C(=O)c4ccccc4C3=O)CC2)cc1", "Potency": "inconclusive: 11.2 µM [activator, single point]"}
{"smiles": "Cc1ccc(Nc2nc(C(=O)N3CCC(C(=O)N4CCN(C)CC4)CC3)cs2)cc1", "Potency": "inconclusive: 6.51 µM [activator, partial curve, poor fit]"}
{"smiles": "Cc1ccc2oc(=O)cc(/C=C/c3ccccc3)c2c1", "Potency": "inconclusive: 35.5 µM [inhibitor, single point]"}
{"smiles": "O=C(OCc1ccc(C(=O)c2ccccc2)cc1)c1cccc(-c2nnc(-c3ccccc3)o2)c1", "Potency": "inconclusive: 3.26 µM [activator, single point]"}
{"smiles": "Cc1cc(-c2cn3ccccc3n2)c(C)n1-c1ccccc1", "Potency": "inconclusive: 11.2 µM [inhibitor, single point]"}
{"smiles": "CCc1ccc(CNC(=O)c2cc3n(n2)CCCN(Cc2ccccc2)C3=O)cc1", "Potency": "inconclusive: 14.1 µM [inhibitor, single point]"}
{"smiles": "Cc1ccc(N(Cc2cc3cc(C)ccc3[nH]c2=O)S(=O)(=O)c2ccccc2)cc1", "Potency": "inconclusive: 11.2 µM [inhibitor, partial curve]"}
{"smiles": "O=C(Nc1nc2ccccc2n1CCN1CCOCC1)c1cccc([N+](=O)[O-])c1", "Potency": "inconclusive: 32.6 µM [inhibitor, single point]"}
{"smiles": "COC(=O)c1[nH]c2ccccc2c1NC(=O)/C=C/c1ccc2c(c1)OCO2", "Potency": "inactive"}
{"smiles": "CCn1c(SCC(=O)NC2CCCCC2)nc2c(c1=O)SC(C)C2", "note": "(stereo not given)", "Potency": "inactive"}
{"smiles": "O=C(NC(=S)Nc1ccc(F)cc1)c1ccc2c(c1)OCCO2", "Potency": "inconclusive: 29.1 µM [inhibitor, single point]"}
{"smiles": "COc1ccc(O[C@H]2C=C[C@@H](c3ccccc3)O[C@@H]2CO/N=C\\[C@@H](C)[C@H](OCc2ccccc2)C(C)C)cc1", "Potency": "inconclusive: 0.006 µM [inhibitor, full curve, poor fit]"}
{"smiles": "COc1ccc(OC)c(NC(=O)C2Cc3ccccc3CN2S(=O)(=O)c2ccc(F)cc2)c1", "note": "(stereo not given)", "Potency": "inconclusive: 3.98 µM [activator, single point]"}
{"smiles": "CC(=O)c1ccc(N2CCN(CC(=O)Nc3ccc4c(c3)OCCO4)CC2)cc1", "Potency": "inconclusive: 35.5 µM [inhibitor, single point]"}
{"smiles": "CN(N=Cc1cccc2cccnc12)c1ccc([N+](=O)[O-])cc1[N+](=O)[O-]", "Potency": "inconclusive: 1.78 µM [inhibitor, partial curve, poor fit]"}
{"smiles": "COc1ccc2c(c1)O[C@@H](c1cccc(C(F)(F)F)c1)[C@H](OC(=O)NC1CCCC1)C2=O", "Potency": "inconclusive: 0.0007 µM [inhibitor]"}
{"smiles": "COc1ccc(NS(=O)(=O)c2cc(C)ccc2NC(=O)c2cc(C)oc2C)cc1", "Potency": "inconclusive: 0.282 µM [inhibitor, full curve, poor fit]"}
{"smiles": "COCCn1c(-c2ccc(OC)cc2)cnc1SCC(=O)Nc1ccc(OC)cc1OC", "Potency": "inconclusive: 3.16 µM [inhibitor, single point]"}
{"smiles": "O=c1c2cc(-c3ccccc3)sc2ncn1-n1cccc1", "Potency": "inconclusive: 0.112 µM [activator, full curve, poor fit]"}
{"smiles": "CCOc1cccc(C(=O)NC(=S)Nc2cccc(C)c2)c1", "Potency": "inconclusive: 28.2 µM [activator, single point]"}
{"smiles": "COc1ccc(N(C(=O)c2snc(C(N)=O)c2N)C(C(=O)NC2CCCCC2)c2ccc(C)o2)cc1", "note": "(stereo not given)", "Potency": "inconclusive: 25.1 µM [inhibitor, partial curve, poor fit]"}
{"smiles": "CCC(C)c1ccccc1OCCCCN1CCCC1", "note": "(stereo not given)", "Potency": "inconclusive: 20.6 µM [inhibitor, single point]"}
{"smiles": "CCCCN1C(=O)Nc2ccccc2S1=O", "note": "(stereo not given)", "Potency": "inactive"}
{"smiles": "COc1ccc(NC(=O)c2ccc3nc[nH]c3c2)c(OC)c1", "Potency": "inactive"}
{"smiles": "CC12C(=O)N(c3ccc(OC(=O)c4ccco4)cc3)C(=O)C1C1c3ccccc3C2c2ccccc21", "note": "(stereo not given)", "Potency": "inconclusive: 5.62 µM [inhibitor, single point]"}
{"smiles": "O=C(NCc1ccncc1)c1ccccc1Nc1ccc(SC(F)F)cc1", "Potency": "inconclusive: 22.4 µM [inhibitor, single point]"}
{"smiles": "CC1(NC(=S)Nc2ccc3ccccc3c2)CCS(=O)(=O)C1", "note": "(stereo not given)", "Potency": "inconclusive: 11.2 µM [activator, single point]"}
{"smiles": "O=[N+]([O-])c1cc(C(F)(F)F)ccc1NCCc1c[nH]c2ccccc12", "Potency": "inconclusive: 15.8 µM [inhibitor, single point]"}
{"smiles": "Cc1ccccc1OCC(=O)Nc1ccc(N2CCN(C)CC2)c(Cl)c1", "Potency": "inconclusive: 14.1 µM [inhibitor, single point]"}
{"smiles": "O=C(Nc1ccc(Cl)cc1)NC1CCCc2ccccc21", "note": "(stereo not given)", "Potency": "inconclusive: 35.5 µM [inhibitor, single point]"}
{"smiles": "O=S(=O)(c1ccc(Cl)cc1)c1nc(-c2cccs2)oc1SCc1ccc(F)cc1", "Potency": "inconclusive: 35.5 µM [inhibitor, single point]"}
{"smiles": "CC(C)COC(=O)OCN1C(=O)CN(CCN2CC(=O)N(COC(=O)OCC(C)C)C(=O)C2)CC1=O", "Potency": "inconclusive: 0.0251 µM [inhibitor, full curve, poor fit]"}
{"smiles": "CCOc1ccc2nc(SCC(=O)Nc3ccc(F)cc3)nc(-c3ccccc3)c2c1", "Potency": "inactive"}
{"smiles": "COc1ccc(C2(C)NC(=O)N(CC(=O)Nc3ccc(-c4nc5ccc(C)cc5s4)cc3)C2=O)cc1", "note": "(stereo not given)", "Potency": "inconclusive: 3.55 µM [activator, partial curve, poor fit]"}
{"smiles": "Cc1ccc(-c2cc(C(=O)Nc3ccc(S(=O)(=O)N4CC(C)OC(C)C4)cc3)[nH]n2)c(O)c1", "note": "(stereo not given)", "Potency": "inactive"}
